In US20050249668A1, “Nir-fluorescent cyanine dyes, their synthesis and biological use” (priority 2002, published 2005):

Test: NIRF reflectance imaging of equimolar dyes in 96-well plate
Format: physicochemical
Details: for detectability in fluorescence imaging system: 0.16 nmole in 200 μl; for signal intensity relative to ICG: equimolar, 800 nm channel
[1] = 800 nm channel (750-770 nm excitation, 800-820 nm emission)
[2] = 700 nm channel (610-650 nm excitation, 680-720 nm emission)

SMILES	detectability in fluorescence imaging system [1]	signal intensity relative to ICG	detectability in fluorescence imaging system [2]
CC[N+]1=C(C=CC=CC=CC=C2N(CCCCS(=O)(=O)[O-])c3ccc(C(=O)O)cc3C2(C)C)C(C)(C)c2c1ccc1c(S(=O)(=O)[O-])cc(S(=O)(=O)[O-])cc21.[K+].[K+] [NIR1]	detectable	7 fold	–
CC[N+]1=C(C=CC=CC=C2N(CCCCS(=O)(=O)[O-])c3ccc(C(=O)O)cc3C2(C)C)C(C)(C)c2c1ccc1c(S(=O)(=O)[O-])cc(S(=O)(=O)[O-])cc21.[K+].[K+] [NIR2]	–	–	detectable
CC1(C)C(=CC=CC=CC=CC2=[N+](CCCCS(=O)(=O)[O-])c3ccc(S(=O)(=O)[O-])cc3C2(C)C)N(CCCCS(=O)(=O)[O-])c2ccc(C(=O)O)cc21.[K+].[K+] [NIR3]	detectable	12 fold	–
CC1(C)C(=C/C=C/C=C/C2=[N+](CCCCS(=O)(=O)[O-])c3ccc(S(=O)(=O)[O-])cc3C2(C)C)N(CCCCS(=O)(=O)[O-])c2ccc(C(=O)O)cc21.[K+].[K+] [NIR4]	–	–	detectable
